In patent US8822533B1, “Methods and compositions for repelling and/or killing insects” (The United States of America, as represented by the …, priority 2011, dated 2014):
Some entries share one result that the patent states for a list of compounds. Some ranges recur; such a range may be that of the whole group of compounds.

test system: Mosquitoes, either Aedes aegypti (Liverpool) or Anopheles stephensi Liston; experiment: K&D module in vitro bioassay: biting protection, knockdown and mortality; format: in vivo; settings: at 48 hrs, 2.5 nM/cm2
Experimental: In vitro bioassays were conducted as described by Klun et. al. (Klun, J. A., et al., J. Med. Entomol., 40: 293-299 (2005)). Each test replicate consisted of 3 treatments: a control (EtOH); a standard (Deet, 4.54 nmol/μl); and an experimental compound (pyrethroid analogs, 4.54 nmol/ul). The 3 treatments were randomly assigned to consecutive cells in 2, 6-cell reservoirs connected in series to a single water-bath pump; thus, 4 replicates could be tested/run. Tests were performed in an Air Science USA hood, with an air movement velocity of approx. 110-120 ft./min., temperature of 25-27° C., and RH of 15-25%. A 6-celled reservoir was connected to and heated by a constant-temperature (38° C.) water circulator (Lauda E100, Wobser GMGH and Co., Konigshofell, Germany).
Prior to each test, the upper surface of each reservoir was coated with a thin layer of high-vacuum silicone grease (Dow Corning Corp., Midland, Mich.), and the cells then filled (approx. 6 ml. capacity) or topped-off with either: (1) expired human red blood cells suspended in citrate-phosphate-dextrose-adenine (CPDA) solution, not more than 1 month past expiration date, and to which 110 mg ATP/35 ml. blood-CPDA had been added on the day of testing; or (2) CPDA+ATP×^−3, usually made up or diluted to 10^−3 ATP on the day of testing. The filled cells were then covered with an Edicol collagen membrane (Devro, Sandy Run, S.C.) strip, and then with a just-treated (110 μl of 4.54 nmol/μl treatment or control solution) organdy cloth (G Street Fabrics, Rockville, Md.) strip. Mosquitoes used in tests were either Aedes aegypti_(Liverpool) or Anopheles stephensi_Liston. K&D modules containing 5 adult females/cell were placed over a Teflon separator atop each reservoir; the sliding floors opened allowing access to the treated organdy cloth and membrane-covered cell; and the number of mosquitoes biting (proboscis inserted through the cloth) and/or observed to be engorged within each cell at the end of a 3-5 min. exposure period was recorded. Mosquitoes were used only once in a test, and then frozen and discarded.
Only tests in which 3 or more females fed in the control cell were analyzed, as lower feeding rates are indicative of substandard feeding readiness of that group of mosquitoes.
[…] Data were collected to record knockdown in 6 minutes, one hour and 24 hours post exposure.

| Structure (SMILES) | reduction in mortality |
| --- | --- |
| CC(C)=C[C@@H]1[C@@H](C(=O)OCc2c(F)c(F)c(C)c(F)c2F)C1(C)C [TL-I-105] | 8-10% |
| CC(C)=C[C@@H]1[C@@H](C(=O)OCc2c(F)c(F)cc(F)c2F)C1(C)C [TL-I-107] | 8-10% |
| Cc1c(F)c(F)c(COC(=O)[C@@H]2[C@@H](C=C(Cl)Cl)C2(C)C)c(F)c1F [TL-I-141] | 8-10% |
| CC1(C)[C@H](C=C(Cl)Cl)[C@H]1C(=O)OCc1c(F)c(F)cc(F)c1F [Transfluthrin, transfluthrin] | 8-10% |
